The source of these data is article PMC8418606.

Chains of the proteins cited; added tags and fusions are not shown. Lines headed by an entry give the natural chain unless they say otherwise; changes in a name come on top.
UniProt P46531: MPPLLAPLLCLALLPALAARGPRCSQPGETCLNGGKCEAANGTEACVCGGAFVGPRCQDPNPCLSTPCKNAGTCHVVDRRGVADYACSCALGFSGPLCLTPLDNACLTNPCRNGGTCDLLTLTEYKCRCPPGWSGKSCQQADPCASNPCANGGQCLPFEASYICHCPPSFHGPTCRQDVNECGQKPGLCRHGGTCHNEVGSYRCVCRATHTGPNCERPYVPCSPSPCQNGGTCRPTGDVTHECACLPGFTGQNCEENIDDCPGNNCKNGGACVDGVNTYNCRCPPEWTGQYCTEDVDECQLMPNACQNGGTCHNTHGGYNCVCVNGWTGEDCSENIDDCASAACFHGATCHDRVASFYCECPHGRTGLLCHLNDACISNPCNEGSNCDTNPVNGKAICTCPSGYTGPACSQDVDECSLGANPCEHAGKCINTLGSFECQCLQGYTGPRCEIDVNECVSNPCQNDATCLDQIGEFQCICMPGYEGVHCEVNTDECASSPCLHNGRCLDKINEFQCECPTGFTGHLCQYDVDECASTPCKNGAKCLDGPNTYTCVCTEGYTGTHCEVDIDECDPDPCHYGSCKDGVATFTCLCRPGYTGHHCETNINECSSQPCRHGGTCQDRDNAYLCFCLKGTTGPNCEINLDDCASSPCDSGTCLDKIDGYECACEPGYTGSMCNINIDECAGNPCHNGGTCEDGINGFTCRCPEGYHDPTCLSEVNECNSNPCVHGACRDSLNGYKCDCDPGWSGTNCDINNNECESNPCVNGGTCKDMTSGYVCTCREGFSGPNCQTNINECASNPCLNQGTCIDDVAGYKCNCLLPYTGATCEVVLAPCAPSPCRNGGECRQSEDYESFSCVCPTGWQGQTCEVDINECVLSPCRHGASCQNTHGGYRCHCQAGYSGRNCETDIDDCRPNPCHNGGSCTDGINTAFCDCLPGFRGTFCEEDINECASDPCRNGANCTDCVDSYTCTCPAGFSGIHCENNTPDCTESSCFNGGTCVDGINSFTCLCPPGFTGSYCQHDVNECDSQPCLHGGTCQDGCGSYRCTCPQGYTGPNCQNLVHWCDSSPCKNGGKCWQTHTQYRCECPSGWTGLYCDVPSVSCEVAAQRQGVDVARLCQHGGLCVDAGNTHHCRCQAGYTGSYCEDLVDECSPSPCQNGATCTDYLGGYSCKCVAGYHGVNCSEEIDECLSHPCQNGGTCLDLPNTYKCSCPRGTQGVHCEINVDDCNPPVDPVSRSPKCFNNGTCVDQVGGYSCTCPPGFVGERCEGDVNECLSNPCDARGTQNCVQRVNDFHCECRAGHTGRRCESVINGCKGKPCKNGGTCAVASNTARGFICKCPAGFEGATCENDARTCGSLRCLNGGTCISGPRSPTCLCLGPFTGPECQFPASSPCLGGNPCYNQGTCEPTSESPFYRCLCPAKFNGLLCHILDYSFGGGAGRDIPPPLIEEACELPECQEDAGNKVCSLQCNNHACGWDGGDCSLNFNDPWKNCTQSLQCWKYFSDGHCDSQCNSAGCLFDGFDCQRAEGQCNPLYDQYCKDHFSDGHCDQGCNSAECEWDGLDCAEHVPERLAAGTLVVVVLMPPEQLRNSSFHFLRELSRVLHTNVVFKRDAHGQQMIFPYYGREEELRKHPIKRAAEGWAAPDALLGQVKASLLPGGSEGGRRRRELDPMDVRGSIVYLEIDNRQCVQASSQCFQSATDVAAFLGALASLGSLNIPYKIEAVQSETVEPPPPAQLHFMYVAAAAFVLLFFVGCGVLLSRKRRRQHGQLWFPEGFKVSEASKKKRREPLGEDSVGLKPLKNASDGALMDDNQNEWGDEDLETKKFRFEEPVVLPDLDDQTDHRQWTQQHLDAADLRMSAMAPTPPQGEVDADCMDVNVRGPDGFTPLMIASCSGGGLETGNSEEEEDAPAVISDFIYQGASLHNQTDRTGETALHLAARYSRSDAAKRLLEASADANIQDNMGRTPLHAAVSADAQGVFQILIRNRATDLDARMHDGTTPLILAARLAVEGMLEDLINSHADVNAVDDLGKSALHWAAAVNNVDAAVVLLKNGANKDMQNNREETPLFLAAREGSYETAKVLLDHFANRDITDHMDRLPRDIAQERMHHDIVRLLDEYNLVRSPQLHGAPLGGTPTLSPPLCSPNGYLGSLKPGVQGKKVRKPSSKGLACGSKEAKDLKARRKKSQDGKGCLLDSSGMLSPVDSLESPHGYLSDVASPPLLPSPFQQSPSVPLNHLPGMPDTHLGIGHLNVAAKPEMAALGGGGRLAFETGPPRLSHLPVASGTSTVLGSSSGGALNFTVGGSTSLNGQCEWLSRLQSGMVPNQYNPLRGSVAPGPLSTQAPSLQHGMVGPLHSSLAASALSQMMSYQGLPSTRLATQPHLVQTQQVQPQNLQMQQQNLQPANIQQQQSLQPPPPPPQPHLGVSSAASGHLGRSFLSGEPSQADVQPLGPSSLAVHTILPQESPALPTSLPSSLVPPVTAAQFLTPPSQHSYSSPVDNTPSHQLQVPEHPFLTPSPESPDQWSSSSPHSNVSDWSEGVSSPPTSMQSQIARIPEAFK
UniProt Q92831: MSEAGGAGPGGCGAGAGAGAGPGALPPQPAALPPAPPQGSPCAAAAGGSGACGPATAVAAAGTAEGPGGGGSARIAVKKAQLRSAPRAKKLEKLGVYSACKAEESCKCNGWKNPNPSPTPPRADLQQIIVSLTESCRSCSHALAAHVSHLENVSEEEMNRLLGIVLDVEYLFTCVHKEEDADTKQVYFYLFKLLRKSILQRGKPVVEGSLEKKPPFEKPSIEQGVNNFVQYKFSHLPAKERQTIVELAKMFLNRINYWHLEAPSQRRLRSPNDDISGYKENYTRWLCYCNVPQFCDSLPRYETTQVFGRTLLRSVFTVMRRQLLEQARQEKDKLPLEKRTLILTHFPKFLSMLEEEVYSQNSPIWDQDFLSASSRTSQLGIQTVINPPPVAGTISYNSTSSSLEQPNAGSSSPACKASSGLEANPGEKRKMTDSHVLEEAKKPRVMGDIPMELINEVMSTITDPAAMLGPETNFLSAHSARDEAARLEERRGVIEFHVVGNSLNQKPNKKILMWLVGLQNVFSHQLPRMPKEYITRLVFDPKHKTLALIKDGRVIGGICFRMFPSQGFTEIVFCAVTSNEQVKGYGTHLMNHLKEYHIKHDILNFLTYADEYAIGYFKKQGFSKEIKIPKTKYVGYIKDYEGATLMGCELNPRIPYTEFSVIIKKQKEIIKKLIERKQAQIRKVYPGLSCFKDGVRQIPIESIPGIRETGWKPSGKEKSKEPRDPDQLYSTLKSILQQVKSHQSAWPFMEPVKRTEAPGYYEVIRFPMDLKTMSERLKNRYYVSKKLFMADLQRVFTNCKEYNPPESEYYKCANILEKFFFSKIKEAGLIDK
UniProt Q09472: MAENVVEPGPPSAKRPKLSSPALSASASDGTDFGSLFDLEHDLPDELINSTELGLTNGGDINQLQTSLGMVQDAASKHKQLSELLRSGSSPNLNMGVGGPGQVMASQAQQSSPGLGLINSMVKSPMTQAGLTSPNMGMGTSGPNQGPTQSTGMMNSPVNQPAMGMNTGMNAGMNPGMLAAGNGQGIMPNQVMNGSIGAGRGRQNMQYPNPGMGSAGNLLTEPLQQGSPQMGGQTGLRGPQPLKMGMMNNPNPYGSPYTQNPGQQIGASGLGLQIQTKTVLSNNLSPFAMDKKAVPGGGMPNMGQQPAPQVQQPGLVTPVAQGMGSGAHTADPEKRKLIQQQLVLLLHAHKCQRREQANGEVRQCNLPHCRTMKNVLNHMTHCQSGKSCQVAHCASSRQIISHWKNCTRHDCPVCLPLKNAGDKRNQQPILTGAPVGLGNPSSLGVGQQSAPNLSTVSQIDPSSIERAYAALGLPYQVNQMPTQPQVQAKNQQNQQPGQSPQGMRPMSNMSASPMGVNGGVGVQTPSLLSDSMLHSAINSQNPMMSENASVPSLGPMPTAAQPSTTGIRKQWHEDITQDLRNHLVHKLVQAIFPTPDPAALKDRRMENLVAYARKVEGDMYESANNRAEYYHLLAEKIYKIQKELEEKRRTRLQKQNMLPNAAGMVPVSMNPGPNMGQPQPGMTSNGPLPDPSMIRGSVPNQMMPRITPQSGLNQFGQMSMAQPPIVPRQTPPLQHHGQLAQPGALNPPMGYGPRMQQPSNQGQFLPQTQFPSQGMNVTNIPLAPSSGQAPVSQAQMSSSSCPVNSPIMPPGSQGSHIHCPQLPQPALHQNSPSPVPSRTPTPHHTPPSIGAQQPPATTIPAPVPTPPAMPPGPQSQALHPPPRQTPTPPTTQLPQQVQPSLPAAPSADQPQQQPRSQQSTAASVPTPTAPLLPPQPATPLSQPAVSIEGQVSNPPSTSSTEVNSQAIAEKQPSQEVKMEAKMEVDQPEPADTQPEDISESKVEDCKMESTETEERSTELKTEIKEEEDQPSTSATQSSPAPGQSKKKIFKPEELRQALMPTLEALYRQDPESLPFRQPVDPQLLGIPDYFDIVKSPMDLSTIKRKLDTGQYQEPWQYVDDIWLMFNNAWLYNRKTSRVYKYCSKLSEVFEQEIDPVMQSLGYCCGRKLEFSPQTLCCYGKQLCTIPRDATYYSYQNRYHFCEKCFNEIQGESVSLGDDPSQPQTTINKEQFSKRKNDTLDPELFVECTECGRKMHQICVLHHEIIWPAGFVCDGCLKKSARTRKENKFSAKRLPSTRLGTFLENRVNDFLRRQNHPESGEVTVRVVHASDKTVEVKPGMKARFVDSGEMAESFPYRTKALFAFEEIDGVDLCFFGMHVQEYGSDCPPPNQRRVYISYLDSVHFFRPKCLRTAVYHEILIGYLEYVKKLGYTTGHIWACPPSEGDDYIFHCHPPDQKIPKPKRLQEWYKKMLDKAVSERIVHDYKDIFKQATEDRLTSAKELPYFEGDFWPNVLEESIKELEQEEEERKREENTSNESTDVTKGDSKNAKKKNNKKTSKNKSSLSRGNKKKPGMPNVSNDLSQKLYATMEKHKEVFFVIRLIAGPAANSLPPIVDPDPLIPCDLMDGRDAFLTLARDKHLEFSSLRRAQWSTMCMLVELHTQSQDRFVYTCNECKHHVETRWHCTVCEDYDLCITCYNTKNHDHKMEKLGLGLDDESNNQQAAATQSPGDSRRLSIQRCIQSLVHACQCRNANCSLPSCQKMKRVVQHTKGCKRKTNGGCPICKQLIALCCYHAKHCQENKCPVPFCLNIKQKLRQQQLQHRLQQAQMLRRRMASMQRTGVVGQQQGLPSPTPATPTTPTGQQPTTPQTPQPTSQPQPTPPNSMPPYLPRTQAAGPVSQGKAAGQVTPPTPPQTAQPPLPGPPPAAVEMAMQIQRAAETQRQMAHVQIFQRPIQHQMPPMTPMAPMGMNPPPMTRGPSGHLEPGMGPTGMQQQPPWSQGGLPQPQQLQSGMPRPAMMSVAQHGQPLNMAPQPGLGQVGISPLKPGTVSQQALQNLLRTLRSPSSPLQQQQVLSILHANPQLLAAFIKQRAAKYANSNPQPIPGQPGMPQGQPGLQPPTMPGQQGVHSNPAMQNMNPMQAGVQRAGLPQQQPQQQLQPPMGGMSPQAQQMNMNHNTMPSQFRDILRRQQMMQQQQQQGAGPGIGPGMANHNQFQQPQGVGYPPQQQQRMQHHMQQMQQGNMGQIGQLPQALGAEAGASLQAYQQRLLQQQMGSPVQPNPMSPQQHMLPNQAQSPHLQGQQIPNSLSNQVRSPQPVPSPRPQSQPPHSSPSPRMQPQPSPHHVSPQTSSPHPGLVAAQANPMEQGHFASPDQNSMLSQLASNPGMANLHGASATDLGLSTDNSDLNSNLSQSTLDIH
UniProt Q9GZV5: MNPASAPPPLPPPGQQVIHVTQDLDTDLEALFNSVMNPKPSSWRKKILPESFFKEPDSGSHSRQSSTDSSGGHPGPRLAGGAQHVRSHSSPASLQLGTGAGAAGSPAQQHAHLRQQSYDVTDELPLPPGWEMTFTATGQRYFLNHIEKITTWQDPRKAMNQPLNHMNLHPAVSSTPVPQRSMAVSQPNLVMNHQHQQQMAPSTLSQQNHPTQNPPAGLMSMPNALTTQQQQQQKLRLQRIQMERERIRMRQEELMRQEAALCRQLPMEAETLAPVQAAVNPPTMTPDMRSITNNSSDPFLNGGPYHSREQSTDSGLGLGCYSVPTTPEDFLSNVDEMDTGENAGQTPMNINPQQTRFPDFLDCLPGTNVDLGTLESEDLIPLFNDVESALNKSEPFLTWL

The target in this assay is FLAG-tagged Notch1 (UniProt P46531). The assay is described as follows: affinity purification with mass spectrometry; cellular extracts of A549 cells stably expressing FLAG (control) or FLAG-Notch1, anti-FLAG affinity columns, eluted with FLAG peptide; SDS-PAGE, silver stain, differential bands analysed by mass spectrometry.

No constants are given. Whether binding was seen depends on the method and setting. Binding seen in cells or lysates may run through a third protein. These calls come from enrichment with a bait or labelling near it, and not all partners need be listed.

For the substance “p300/CBP-associated factor (pCAF) (from UniProt Q92831 1-832) (enzyme)”, the binding entry is “binds”. “histone acetyltransferase p300 (from UniProt Q09472 1-2414) (enzyme)”: the binding result is listed as “binds”. As to “transcriptional coactivator with PDZ-binding motif (TAZ) (from UniProt Q9GZV5 1-400)”, the binding result is on record as “binds”.
